The list does not hold the whole screen: it gathers tests that were run many times, whatever their T/C, doses with no T/C, and many T/C values between a quarter and a half above the control. Other doses and runs of a compound stand elsewhere. T/C: endpoint of the treated group in % of that of the vehicle group. Some doses have a count of surviving animals in place of a T/C: the source holds a T/C of zero for them, seemingly a mark for toxic or unscored doses. Some doses without a T/C left all or most animals alive at the check, yet need not have been tolerated: survival well below the control is almost never listed, so the zero probably covers shortened survival too. Counts of survivors are from the toxicity check (mostly the fifth day) where no day follows; animals may have died later. Schedule codes are those of the source, taken here to give the interval after Q, in days (D) or hours (H), and the number of doses after X. Counts like (3×) count equal records among those shown. Some doses were run more than once; their values stand side by side, smallest first. For survival time, the PubChem record calls one and a half times the control and up active, and a quarter to a half above the control has no call in these data; cut-offs in other NCI protocols can differ. Some T/C values carry the count of animals alive at the toxicity check (mostly the fifth day); without a count, all were alive then.
Test system: BDF1 mice, B16 melanoma ip, median survival T/C
Test: NCI In Vivo Anticancer Drug Screen. Data for tumor model B16 Melanoma (intraperitoneal) in B6D2F1 (BDF1) mice
Details: T/C endpoint: median survival time, higher T/C = longer survival
Summary of the method: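 Compounds were tested in mice carrying transplantable tumors. Survival or tumor size was recorded, and each value is the treated-group measurement (T) divided by that of the vehicle-treated control group (C).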

[1] = dose: 50.0 mg/kg/injection, schedule: Q04DX003 (ip), vehicle: Klucel (hydroxypropylcellulose) (HPC)
[2] = dose: 100.0 mg/kg/injection, schedule: Q04DX003 (ip), vehicle: Klucel (hydroxypropylcellulose) (HPC)
[3] = dose: 200.0 mg/kg/injection, schedule: Q04DX003 (ip), vehicle: Klucel (hydroxypropylcellulose) (HPC)
[4] = dose: 100.0 mg/kg/injection, schedule: Q01DX009 (ip), vehicle: saline with Tween-80
[5] = dose: 200.0 mg/kg/injection, schedule: Q01DX009 (ip), vehicle: saline with Tween-80
[6] = dose: 400.0 mg/kg/injection, schedule: Q01DX009 (ip), vehicle: saline with Tween-80
[7] = dose: 50.0 mg/kg/injection, schedule: Q01DX009 (ip), vehicle: saline
[8] = dose: 100.0 mg/kg/injection, schedule: Q01DX009 (ip), vehicle: saline
[9] = dose: 200.0 mg/kg/injection, schedule: Q01DX009 (ip), vehicle: saline
[10] = dose: 60.0 mg/kg/injection, schedule: Q01DX009 (ip), vehicle: saline
[11] = dose: 100.0 mg/kg/injection, schedule: Q01DX009 (ip), vehicle: Klucel (hydroxypropylcellulose) (HPC)
[12] = dose: 200.0 mg/kg/injection, schedule: Q01DX009 (ip), vehicle: Klucel (hydroxypropylcellulose) (HPC)
[13] = dose: 400.0 mg/kg/injection, schedule: Q01DX009 (ip), vehicle: Klucel (hydroxypropylcellulose) (HPC)

Question: Which survivor count [1] does the source give for `CC[N+](CC)(CC)CC.N#C/C([SH2+])=C(/[SH2+])C#N.N#C/C([SH2+])=C(/[SH2+])C#N.[Cu+2]` here?
Answer: 2 of 10 and 9 of 10

Question: And the survivor count [2]?
Answer: 0 of 10

Question: And the survivor count [3]?
Answer: 0 of 10

Question: With `N#CC(=C1C=CC(=NO)C=C1)c1ccc(Cl)cc1` as the compound, how does the survivor count [4] read?
Answer: 10 of 10

Question: What about the survivor count [5] of the same compound?
Answer: 10 of 10

Question: `CN(C)CC/C=C1\c2ccccc2Sc2ccc(Cl)cc21` was tested. Which survivor count (dose: 0.97 mg/kg/injection, schedule: Q01DX009 (ip), vehicle: Klucel (hydroxypropylcellulose) (HPC)) did it give?
Answer: 10 of 10

Question: How did the survivor count (dose: 300.0 mg/kg/injection, schedule: Q01DX009 (ip), vehicle: saline) turn out when `CCCCCCC1N(Cc2ccccc2N(C)C)CCCN1Cc1ccccc1N(C)C` was run?
Answer: 0 of 6

Question: With `Cc1cc(C)c(OCC(O)CO)c(C)c1` (stereo not given) as the compound, how does the survivor count [6] read?
Answer: 6 of 10

Question: How did the survivor count (dose: 12.5 mg/kg/injection, schedule: Q01DX009 (ip), vehicle: olive oil, sesame oil, peanut oil) turn out when `Cc1ccc2nc(-c3ccc(N=Cc4ccccc4O)cc3)sc2c1` was run?
Answer: 9 of 10 and 10 of 10

Question: What about the survivor count (dose: 25.0 mg/kg/injection, schedule: Q01DX009 (ip), vehicle: olive oil, sesame oil, peanut oil) of the same compound?
Answer: 10 of 10

Question: What about the survivor count (dose: 50.0 mg/kg/injection, schedule: Q01DX009 (ip), vehicle: olive oil, sesame oil, peanut oil) of the same compound?
Answer: 9 of 10

Question: And the survivor count (dose: 100.0 mg/kg/injection, schedule: Q01DX009 (ip), vehicle: olive oil, sesame oil, peanut oil)?
Answer: 10 of 10 (2×)

Question: What about the survivor count (dose: 200.0 mg/kg/injection, schedule: Q01DX009 (ip), vehicle: olive oil, sesame oil, peanut oil) of the same compound?
Answer: 10 of 10 (2×)

Question: What about the survivor count (dose: 400.0 mg/kg/injection, schedule: Q01DX009 (ip), vehicle: olive oil, sesame oil, peanut oil) of the same compound?
Answer: 9 of 10 and 10 of 10

Question: For `CN(C)CCCCNc1ccc(NCCCCN(C)C)c2c1C(=O)c1c(O)ccc(O)c1C2=O`, which survivor count [7] is on record?
Answer: 10 of 10

Question: What about the survivor count [8] of the same compound?
Answer: 2 of 10

Question: And the survivor count [9]?
Answer: 0 of 10

Question: Which T/C (dose: 10.0 mg/kg/injection, schedule: Q01DX009 (ip), vehicle: saline) does the source give for `O=c1[nH]c(=O)n(C2CC(O)C(CO)O2)cc1F` (stereo not given) here?
Answer: 97, 113, 119, 135, 138 % of control

Question: And the T/C (dose: 20.0 mg/kg/injection, schedule: Q01DX009 (ip), vehicle: saline)?
Answer: 104, 131, 135, 145, 147 % of control

Question: What about the T/C (dose: 25.0 mg/kg/injection, schedule: Q01DX009 (ip), vehicle: saline with Tween-80) of the same compound?
Answer: 130 % of control

Question: What about the T/C (dose: 25.0 mg/kg/injection, schedule: Q01DX009 (ip), vehicle: saline, evaluated on day 45) of the same compound?
Answer: 107, 119, 123, 128, 138 % of control

Question: And the T/C (dose: 25.0 mg/kg/injection, schedule: Q01DX009 (ip), vehicle: saline, evaluated on day 60)?
Answer: 100, 110 (2×), 111, 113, 114, 115 (2×), 121, 122 (2×), 123, 125, 127, 128, 129, 130, 133 [5 of 6 alive], 136, 137, 140, 141, 153, 156 [5 of 6 alive], 171 % of control

Question: And the T/C (dose: 40.0 mg/kg/injection, schedule: Q01DX009 (ip), vehicle: saline)?
Answer: 118, 143, 145, 150 % of control

Question: What about the T/C (dose: 50.0 mg/kg/injection, schedule: Q01DX009 (ip), vehicle: saline, evaluated on day 45) of the same compound?
Answer: 112, 116, 126, 133, 148 % of control

Question: What about the T/C (dose: 50.0 mg/kg/injection, schedule: Q01DX009 (ip), vehicle: saline, evaluated on day 60) of the same compound?
Answer: 92, 97, 104, 107, 115 [5 of 6 alive], 121, 123 (3×), 129, 132, 133 [4 of 6 alive], 135, 136 (3×), 140, 141, 145, 146 (2×), 147, 165, 166 % of control [4 of 6 alive]

Question: And the survivor count [7]?
Answer: 10 of 10

Question: What about the T/C [10] of the same compound?
Answer: 127 and 141 % of control

Question: What about the T/C (dose: 80.0 mg/kg/injection, schedule: Q01DX009 (ip), vehicle: saline) of the same compound?
Answer: 88, 139, 142, 145 % of control

Question: And the T/C [4]?
Answer: 145 % of control

Question: And the T/C (dose: 100.0 mg/kg/injection, schedule: Q01DX009 (ip), vehicle: saline, evaluated on day 45)?
Answer: 114, 125, 128, 148, 150 % of control

Question: What about the T/C (dose: 100.0 mg/kg/injection, schedule: Q01DX009 (ip), vehicle: saline, evaluated on day 60) of the same compound?
Answer: 93, 97 (3×), 119, 126 [5 of 6 alive], 129, 131 (2×), 134, 141 (2×), 145, 150, 153, 158, 162, 178 % of control

Question: And the survivor count [8]?
Answer: 10 of 10 and 6 of 6

Question: What about the survivor count [5] of the same compound?
Answer: 6 of 6

Question: And the T/C (dose: 200.0 mg/kg/injection, schedule: Q01DX009 (ip), vehicle: saline, evaluated on day 45)?
Answer: 100 and 112 % of control

Question: What about the T/C (dose: 200.0 mg/kg/injection, schedule: Q01DX009 (ip), vehicle: saline, evaluated on day 60) of the same compound?
Answer: 88 [5 of 6 alive], 89, 105 (2×), 111, 115, 125 % of control

Question: What about the survivor count [9] of the same compound?
Answer: 5 of 6, 10 of 10, 6 of 6 (2×)

Question: With `CC(C)(O)C(C)(O)c1cccc(Cl)c1` (stereo not given) as the compound, how does the survivor count [11] read?
Answer: 10 of 10

Question: What about the survivor count [12] of the same compound?
Answer: 9 of 10

Question: For `O=C1OC(COCC#Cc2ccccc2)CN1c1ccccc1` (stereo not given), which survivor count [11] is on record?
Answer: 10 of 10

Question: For `CC(=O)Nc1ccc([I+]c2ccc([N+](=O)[O-])cc2)cc1`, which survivor count (dose: 12.5 mg/kg/injection, schedule: Q01DX009 (ip), vehicle: Klucel (hydroxypropylcellulose) (HPC)) is on record?
Answer: 10 of 10

Question: Which results are given for `Cc1cccc2nc(-c3ccccc3)ccc12`?
Answer: survivor count [1]: 0 of 10; survivor count (dose: 50.0 mg/kg/injection, schedule: Q04DX003 (ip), vehicle: saline): 6 of 10; survivor count [2]: 0 of 10; survivor count [3]: 0 of 10

Question: `CCOC(=O)CCC[P+](c1ccccc1)(c1ccccc1)c1ccccc1` was tested. Which T/C (dose: 10.0 mg/kg/injection, schedule: Q01DX009 (ip), vehicle: saline with Tween-80) did it give?
Answer: 127 % of control

Question: And the T/C (dose: 30.0 mg/kg/injection, schedule: Q01DX009 (ip), vehicle: saline with Tween-80)?
Answer: 129 % of control

Question: What about the T/C (dose: 44.0 mg/kg/injection, schedule: Q01DX009 (ip), vehicle: saline with Tween-80) of the same compound?
Answer: 133 % of control

Question: `CNC(C)Cc1ccccc1` (stereo not given) was tested. Which survivor count (dose: 7.5 mg/kg/injection, schedule: Q01DX009 (ip), vehicle: saline) did it give?
Answer: 10 of 10

Question: And the survivor count [10]?
Answer: 6 of 10

Question: Which T/C [12] does the source give for `O=c1oc(/C=C/c2ccccc2)nc2cc(Cl)ccc12` here?
Answer: 130 % of control

Question: What about the survivor count [13] of the same compound?
Answer: 5 of 10

Question: Which survivor count (dose: 2.0 mg/kg/injection, schedule: Q01DX009 (ip), vehicle: saline) does the source give for `Cc1n(Cc2ccccc2)c2c([n+]1C)C(=O)c1ccccc1C2=O` here?
Answer: 6 of 6

Question: With `Cc1cc2oc(C)[n+](Cc3ccccc3)c2cc1C` as the compound, how does the survivor count [5] read?
Answer: 10 of 10

Question: With `CCOc1ncc([N+](=O)[O-])c(OCC)n1` as the compound, how does the T/C [5] read?
Answer: 125 % of control

Question: `CCc1ccc(C2=C(O)C(=O)C(c3ccc(CC)cc3)=C(O)C2=O)cc1` was tested. Which survivor count (dose: 50.0 mg/kg/injection, schedule: Q01DX009 (ip), vehicle: saline with Tween-80) did it give?
Answer: 8 of 10 and 9 of 10

Question: And the survivor count [4]?
Answer: 0 of 10 and 5 of 10

Question: With `CC(=O)[C@H]1CC[C@H]2[C@@H]3C[C@H](C)C4=CC(=O)CC[C@]4(C)[C@H]3C(=O)C[C@]12C` as the compound, how does the survivor count (dose: 800.0 mg/kg/injection, schedule: Q01DX009 (ip), vehicle: Klucel (hydroxypropylcellulose) (HPC)) read?
Answer: 1 of 6

Question: What does the source list for `COC(=O)C1C(O)C(C)C(O)C(C)C=C(C)C2=C3C(=C(C)C(=O)c4c(O)c(c(C)c(OC(C)=O)c43)NC(=O)C(C)=C/C=C\C(C)C(O)C(C)C1O)OCO2` (stereo not given)?
Answer: survivor count (dose: 50.0 mg/kg/injection, schedule: Q01DX009 (ip), vehicle: Klucel (hydroxypropylcellulose) (HPC)): 10 of 10; survivor count [11]: 9 of 10; survivor count (dose: 100.0 mg/kg/injection, schedule: Q01DX009 (ip), vehicle: carboxymethylcellulose (CMC)): 0 of 10; survivor count [12]: 0 of 10 and 0 of 6; survivor count [13]: 0 of 6

Question: With `O=C(OC1COC(n2c(=O)oc3ccc(F)cc32)C(OC(=O)c2ccccc2)C1OC(=O)c1ccccc1)c1ccccc1` (stereo not given) as the compound, how does the survivor count [13] read?
Answer: 6 of 6

Question: `CCOC(=O)CCCN(c1sc(C)c(C)c1C(=O)OCC)S(=O)(=O)c1ccc(C)cc1` was tested. Which T/C (dose: 25.0 mg/kg/injection, schedule: Q04DX003 (ip), vehicle: saline with Tween-80) did it give?
Answer: 130 % of control

Question: For `COC(=O)C1=C(N)CCc2ccccc21`, which survivor count [6] is on record?
Answer: 7 of 10

Source: PubChem BioAssay AID192 (DTP/NCI, 2004)
